Experimental data: PubChem BioAssay AID1159578 (Peter MacCallum Cancer Centre, 2015)

- Test: 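Genome-wide hunt for genes controlling movement of lymphatic endothelial cells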 (primary screen)
- System: human lymphatic endothelial cells
- Knock-down reagent: siRNA pool against human genes, 40 nM
- Timing: 48 h after transfection
- Measurement: 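Cells stained with dye and imaged after a scratch; covered wound area and nuclei counted, duplicates averaged, migration set against mock wells and turned into a robust z-score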
- Direction: migration robust z-score: higher = faster migration into the scratch; migration relative to mock: higher = more scratch area covered than mock; nuclei per well: higher = more cells in the well
- Call rule: 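Pools averaging fewer than 3300 nuclei are never called; remaining pools count as changed when migration robust z lies outside -2 to 2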
- Meaning of the calls: active = migration changed; inactive = no migration change, or too few cells
Shown is one part, drawn at random, of about 18,000 reagents. About 1,030 of all reagents (5.7%) count as active. 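Inactive calls also include pools with fewer than 3300 nuclei, whose migration was not assessed.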 Raw values are not corrected between plates.

no.	gene	migration robust z-score	migration class with cell-count check	migration relative to mock	nuclei per well, duplicate mean	Call
1	EPHA7	-3.68	migration z below -2; enough cells	0.1	3375	active
2	TFCP2	-0.18	migration z between -2 and 2; enough cells	0.77	4222	inactive
3	RIN3	-0.68	migration z between -2 and 2; enough cells	0.71	6209	inactive
4	BIRC6	2.13	migration z above 2; enough cells	1.21	5277	active
5	PI4K2B	0.08	migration z between -2 and 2; enough cells	0.82	5714	inactive
6	PGRMC2	-0.62	migration z between -2 and 2; enough cells	0.68	6698	inactive
7	KRT76	0.19	migration z between -2 and 2; enough cells	0.94	5276	inactive
8	KCNH7	-0.94	migration z between -2 and 2; enough cells	0.62	6548	inactive
9	S1PR5	0.28	migration z between -2 and 2; enough cells	0.86	5727	inactive
10	DAZ4	-0.68	migration z between -2 and 2; enough cells	0.7	5624	inactive
11	KRTAP12-2	-2.66	migration z below -2; enough cells	0.18	4264	active
12	TRIM49C	-0.44	migration z between -2 and 2; enough cells	0.72	7114	inactive
13	MEX3A	0.13	migration z between -2 and 2; enough cells	0.83	5914	inactive
14	TAF12	-0.86	migration z between -2 and 2; enough cells	0.64	6592	inactive
15	HMGCS1	1.06	migration z between -2 and 2; enough cells	1.01	5830	inactive
16	MPI	-0.26	migration z between -2 and 2; enough cells	0.76	4896	inactive
17	ATP6V1C1	-0.29	migration z between -2 and 2; enough cells	0.75	5790	inactive
18	DOCK8	0.38	migration z between -2 and 2; enough cells	0.99	6459	inactive
19	FAM163B	-0.08	migration z between -2 and 2; enough cells	0.86	6684	inactive
20	LIPM	0.57	migration z between -2 and 2; enough cells	0.92	6114	inactive
21	SORD	-1.24	under 3300 nuclei; migration not judged	0.56	3290	inactive
22	PSMC3IP	-0.24	migration z between -2 and 2; enough cells	0.82	7038	inactive
23	SRY	0.28	migration z between -2 and 2; enough cells	0.96	6717	inactive
24	PLPP6	-0.24	migration z between -2 and 2; enough cells	0.76	3852	inactive
25	OR51A7	0.12	migration z between -2 and 2; enough cells	0.92	4812	inactive
26	TVP23A	-0.69	migration z between -2 and 2; enough cells	0.71	5370	inactive
27	ADGRA3	0.6	migration z between -2 and 2; enough cells	0.92	6574	inactive
28	CHAC1	0.66	migration z between -2 and 2; enough cells	1.06	4299	inactive
29	ADGRB2	-0.52	migration z between -2 and 2; enough cells	0.7	6028	inactive
30	ZDHHC5	0.52	migration z between -2 and 2; enough cells	1.02	6074	inactive
31	ZNHIT3	-0.62	migration z between -2 and 2; enough cells	0.72	6872	inactive
32	MC1R	0.86	migration z between -2 and 2; enough cells	0.97	5517	inactive
33	PKHD1	1.28	migration z between -2 and 2; enough cells	1.22	5996	inactive
34	RGS19	-1.46	migration z between -2 and 2; enough cells	0.52	6257	inactive
35	NUDT16	0.12	migration z between -2 and 2; enough cells	0.92	4433	inactive
36	RPP14	0.02	migration z between -2 and 2; enough cells	0.81	5900	inactive
37	TAS2R14	-0.17	migration z between -2 and 2; enough cells	0.84	5624	inactive
38	MARS2	0.78	migration z between -2 and 2; enough cells	0.96	5544	inactive
39	TYSND1	-0.7	migration z between -2 and 2; enough cells	0.67	5539	inactive
40	LANCL2	-0.01	migration z between -2 and 2; enough cells	0.88	5309	inactive
41	DUX4L1	1.56	migration z between -2 and 2; enough cells	1.29	7028	inactive
42	ECM1	-0.42	migration z between -2 and 2; enough cells	0.72	6570	inactive
43	PON3	0.34	migration z between -2 and 2; enough cells	0.98	8462	inactive
44	ENPP1	0.88	migration z between -2 and 2; enough cells	0.98	6429	inactive
45	LARP7	-0.36	migration z between -2 and 2; enough cells	0.79	5784	inactive
46	NAALAD2	0.88	migration z between -2 and 2; enough cells	0.97	6248	inactive
47	PRNT	0.38	migration z between -2 and 2; enough cells	0.99	5082	inactive
48	FMNL2	-1.29	migration z between -2 and 2; enough cells	0.54	3692	inactive
49	CBR1	-3.04	migration z below -2; enough cells	0.22	3516	active
50	NXT1	0.31	migration z between -2 and 2; enough cells	0.86	5282	inactive
51	TMEM161A	-0.42	migration z between -2 and 2; enough cells	0.78	8972	inactive
52	COLGALT1	-0.4	migration z between -2 and 2; enough cells	0.78	5861	inactive
53	LDLRAP1	1.03	migration z between -2 and 2; enough cells	1	6242	inactive
54	MMP24	0.26	migration z between -2 and 2; enough cells	0.85	5256	inactive
55	STXBP6	0.86	migration z between -2 and 2; enough cells	1.11	5996	inactive
56	TMEM140	-0.38	migration z between -2 and 2; enough cells	0.78	6148	inactive
57	SWAP70	-0.82	migration z between -2 and 2; enough cells	0.68	5204	inactive

No new results follow: an excerpt of the list.
no.	gene	migration robust z-score	migration class with cell-count check	migration relative to mock	nuclei per well, duplicate mean	Call
38	MARS2	0.78	migration z between -2 and 2; enough cells	0.96	5544	inactive
39	TYSND1	-0.7	migration z between -2 and 2; enough cells	0.67	5539	inactive
40	LANCL2	-0.01	migration z between -2 and 2; enough cells	0.88	5309	inactive
41	DUX4L1	1.56	migration z between -2 and 2; enough cells	1.29	7028	inactive
42	ECM1	-0.42	migration z between -2 and 2; enough cells	0.72	6570	inactive
43	PON3	0.34	migration z between -2 and 2; enough cells	0.98	8462	inactive
44	ENPP1	0.88	migration z between -2 and 2; enough cells	0.98	6429	inactive
45	LARP7	-0.36	migration z between -2 and 2; enough cells	0.79	5784	inactive
